# Results: PubChem BioAssay AID504444 (National Center for Advancing Translational Sciences (NCATS), 2011)
# The campaign covered roughly 360,000 compounds. About 7,500 (2.1%) were called active. The inconclusive results got no clear call from the source; some entries with a clear call stand among them for comparison. Calls follow the shape of the dose curve; as a rule, active = well fitted inhibition curve with a large enough effect; inconclusive = small, poorly fitted or top-dose-only effect, or effect the other way; inactive = flat fitted curve, though single readings scatter. Potencies of inconclusive entries are doubtful fits and often do not repeat.
# Experiment: Nrf2 qHTS screen for inhibitors; also: nearly all actives have a fitted effect of over 60% in size
# Settings: A549 ARE-Fluc reporter, luciferase luminescence, 18-24 h; series mostly up to 46 µM
# Summary of the method: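 Cells were seeded and rested 2 h, then exposed to compounds for 18-24 h. CellTiter-Fluor was read first as a viability measure. BugLite was added 15 min before the final luminescent read of ARE-luciferase activity in A549 cells.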
# Potency is read from the fitted curve at half-maximal effect.
row,SMILES,Potency
1,CCN(C(=O)c1cnc(N2CCN(c3ncccn3)CC2)c2ccccc12)c1cccc(Cl)c1,"inconclusive: 29.1 µM [falling, single point]"
2,Cc1ccc(C)c(N2N=C(C(=O)Nc3ccccc3N3CCOCC3)CCC2=O)c1,inactive
3,CCOC(=O)C1CCN(C2=C(NS(=O)(=O)c3ccc(Br)cc3)C(=O)c3ccccc3C2=O)CC1,inactive
4,CCc1ccc(CN(C)C(=O)c2cc(COc3cc(C)c(Cl)c(C)c3)on2)nc1,"inconclusive: 29.1 µM [falling, single point]"
5,CCOC(=O)C1CCN(Cc2ccc(-c3ccccc3)cc2)CC1,"inconclusive: 32.6 µM [falling, single point]"
6,O=C(O)c1ccc(Nc2nc(-c3ccccc3)c3cc(Br)ccc3n2)cc1,"inconclusive: 25.9 µM [falling, partial curve, poor fit]"
7,CC1(C)CC(NC(=O)C2CCC(=O)N(Cc3ccccc3F)C2)CC(C)(C)C1 (centres undefined),"inconclusive: 7.31 µM [activator, partial curve]"
8,Cc1cc(C)cc(NC(=O)CSc2nc3c(c(=O)n2C)SC(C)C3)c1 (centres undefined),"inconclusive: 3.66 µM [falling, full curve]"
9,Cc1nc(N/N=C/c2ccc(O)cc2O)cc(N2CCOCC2)n1,active: 20.6 µM
10,Cc1cc(=O)n2[nH]c(C)cc2n1,inactive
11,Cc1csc(NC(=O)Cc2c[nH]c3ccccc23)n1,"inconclusive: 8.2 µM [activator, partial curve]"
12,CCOc1ccc2nc(NCCNC(=O)CC)c(C#N)cc2c1,inactive
13,O=C(OCc1ccccc1F)c1ccc2c(c1)-c1ccccc1C2=O,"inconclusive: 3.66 µM [activator, full curve]"
14,Cc1cc(N2CCOCC2)ccc1/C=C1\NC(=O)N(CC(=O)Nc2ccccc2C)C1=O,"inconclusive: 5.8 µM [activator, single point]"
15,CC(Oc1cccc(Cl)c1)C(=O)Nc1cc(=O)n(C)c(=O)n1C (centres undefined),"inconclusive: 5.8 µM [falling, full curve, poor fit]"
16,O=C(Nc1ccccc1C(=O)Nc1ccc(Br)cn1)c1ccccc1Cl,"inconclusive: 25.9 µM [falling, partial curve]"
17,CCc1nnc(NC(=O)c2ccc(S(=O)(=O)N(CCOC)CCOC)cc2)o1,inactive
18,CC(=O)N(C)c1ccc(NC(=O)c2ccccc2C(=O)O)cc1,"inconclusive: 0.146 µM [falling, full curve, poor fit]"
19,C[C@@H]1CN([C@@H](C)CO)C(=O)c2cccc(NC(=O)C3CCCCC3)c2O[C@@H]1CN(C)Cc1ccc(Cl)c(Cl)c1,"inconclusive: 20.6 µM [falling, single point]"
20,Cc1c(Br)cccc1NC(=O)c1sccc1-n1cccc1,inactive
21,CCc1ccc(C2N=C(N)Nc3nc4ccccc4n32)cc1 (centres undefined),"inconclusive: 4.61 µM [falling, partial curve, poor fit]"
22,CCc1cccc2c(C(=O)CSc3nnc(-c4ccncc4)n3C)c[nH]c12,"inconclusive: 7.31 µM [falling, single point]"

row,SMILES,Potency
1,Cc1ccc(-n2ncc(C(=O)NCCc3ccsc3)c2C2CCN(C(=O)OC(C)(C)C)CC2)c(C)c1,"inconclusive: 29.1 µM [falling, single point]"
2,CCN(C(C)=O)c1cnc(C=NNC(N)=S)c2ccccc12,active: 8.2 µM
3,CC(C)CSc1nnc2c(n1)[nH]c1ccccc12,"inconclusive: 0.411 µM [activator, partial curve, poor fit]"
4,CC(=O)c1cccc(NC(=O)COc2ccc3oc(=O)cc(C)c3c2)c1,"inconclusive: 4.11 µM [falling, partial curve, poor fit]"
5,N#CCC(=O)N/N=C/c1coc2ccccc2c1=O,inactive
6,CC(C)c1cc(NC(=O)CCl)on1,inactive
7,COc1cccc(-c2cc(C(=O)NC3CCCCC3)no2)c1,"inconclusive: 4.61 µM [activator, full curve, poor fit]"
8,Cc1ccccc1NC(C)C(=O)N/N=C/c1ccccc1OCc1cccc(Br)c1 (centres undefined),active: 14.6 µM
9,Cc1cccc(N2CCN(C(=O)COc3ccc4ccc(=O)oc4c3)CC2)c1C,"inconclusive: 18.4 µM [falling, single point]"
10,COc1cc(C(=O)Nc2sc3c(c2C(N)=O)CCC(C)C3)cc(OC)c1OC (centres undefined),"inconclusive: 3.66 µM [falling, partial curve, poor fit]"
11,CN(C)S(=O)(=O)c1ccc(Cl)c(NC(=O)C2CCN(S(=O)(=O)c3cccs3)CC2)c1,"inconclusive: 13 µM [falling, partial curve]"
12,COc1ccc(-n2c(SCC(=O)Nc3ccccc3)nc3c(c2=O)SCC3)cc1,"inconclusive: 8.2 µM [falling, partial curve, poor fit]"
13,Cc1ccc(C(=O)N/N=C(\CC(C)C)c2ccccc2)cc1,"inconclusive: 0.0058 µM [activator, full curve, poor fit]"
14,COc1ccc(C(=O)NCC(c2ccco2)N2CCc3ccccc3C2)cc1 (centres undefined),inactive
15,Cc1ccc(Oc2ccc(OCC(=O)NC3CCS(=O)(=O)C3)cc2)cc1 (centres undefined),"inconclusive: 16.4 µM [falling, single point]"
16,COC(=O)c1ccc(NC(=O)Nc2ccc3c(c2)nc(C)n3C)cc1,inactive
17,Cn1c(=O)cc(OCCCC(=O)NCc2cccnc2)c2ccccc21,"inconclusive: 2.31 µM [falling, partial curve, poor fit]"
18,COc1ccc(-c2csc3ncnc(NCCO)c23)cc1,"inconclusive: 32.6 µM [falling, single point]"
19,Cc1ccc(/C=C2\SC(=S)N(CCC(=O)N3CCOCC3)C2=O)cc1,"inconclusive: 18.4 µM [activator, partial curve]"
20,COc1ccc(OC)c2c(C)cc(N3CCN(C(=O)c4ccc(C)cc4)CC3)nc12,inactive
21,COc1ccc(-c2cc(-c3n[nH]c(=S)n3-c3cccc4ccccc34)[nH]n2)cc1,"inconclusive: 14.6 µM [falling, partial curve]"
22,COc1cc(C(=O)Nc2ccc3c(c2)CCN3C(C)=O)cc(OC)c1OC,"inconclusive: 7.31 µM [activator, partial curve, poor fit]"

# Sorted by number of heavy atoms (high to low): three of the compounds above
row,SMILES,Potency
11,CN(C)S(=O)(=O)c1ccc(Cl)c(NC(=O)C2CCN(S(=O)(=O)c3cccs3)CC2)c1,"inconclusive: 13 µM [falling, partial curve]"
14,COc1ccc(C(=O)NCC(c2ccco2)N2CCc3ccccc3C2)cc1 (centres undefined),inactive
7,COc1cccc(-c2cc(C(=O)NC3CCCCC3)no2)c1,"inconclusive: 4.61 µM [activator, full curve, poor fit]"
